# Results published in the supplement of paper PMC8728848.
# This is one part of the list.
# B1: GS7807Q-bfa-507-19-507 (Bacteroides fragilis) (protein)
# chain: ASCNKFDDLNTNPDAATKVTAPMLATKLILNITQQGSAKNFVYHSMLSKQIAWSENASDEQYNLFGRTDFDGYTILTNCQKMVDAANEGDKDSYAALAKFMKAYKLFYKSLEVGDIPYSDALKGEEGVQKPKYDTQKEVMRQVLEDLEEAYTLFSSGSDFDGDPIFGGDTENWKKTVVAFELKVLTHLCKKDTDADLKVKERFARLVSSGSLMTSNADNFQLVYSNKAGQLYPFYYTQNKHSDYLMMSSVIIDNLKKFNDYRMFYYASPAKAQTDKGIKDSEWDAYLSIDPSDSYSNISVLYGKGEFCLANLRYTRVPEGEPLMRLSYAEQNFILAEGAVRGWISEDASTYYKKGIEASMNFIADNTPDKEEYTHGRTITQEYIQEYLAQPVIQLSGDKEKDLEMILLQRYLASFLQHPYDAYYDYRRTGYPVLPINPSTNLNTEKNKIPTRWMYPEAEFSYNPDNANEAVQRQYNGSDDVNKLMWILQ
# Tests used:
# Experiment in all cases: glycan array binding signal (z-score within array); higher = stronger binding
# Conditions in all cases: glycan notation: IUPAC condensed, linker removed
# GalNAc(b1-3)Gal = molecular target: GalNAc(b1-3)Gal
# Outline: (§1)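 Columns mapping to the same glycan were averaged after glycan names were converted to IUPAC-condensed notation. The data come from 3228 arrays in the Consortium for Functional Glycomics database, limited to those with an available protein sequence. Binding is reported as a within-array Z-score averaged across arrays of one protein sequence and across linkers.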
# [1] = molecular target: GalNAc(b1-3)Gal(a1-4)Gal(b1-4)GlcNAc
# Outline: as §1
# [2] = molecular target: GalNAc(b1-3)Gal(a1-4)Gal(b1-4)GlcNAc(b1-3)Gal(b1-4)Glc
# Outline: as §1
# [3] = molecular target: GalNAc(b1-3)Gal(a1-6)Gal(b1-4)Glc
# Outline: as §1
# GalNAc(b1-3)GalNAc = molecular target: GalNAc(b1-3)GalNAc
# Outline: as §1
# GalNAc(b1-3)GlcNAc = molecular target: GalNAc(b1-3)GlcNAc
# Outline: as §1
# GalNAc(b1-4)Gal(b1-4)Glc = molecular target: GalNAc(b1-4)Gal(b1-4)Glc
# Outline: as §1
# GalNAc(b1-4)GlcNAc = molecular target: GalNAc(b1-4)GlcNAc
# Outline: as §1
# [4] = molecular target: GalNAc(b1-4)GlcNAc(b1-2)Man
# Outline: as §1
# [5] = molecular target: GalNAc(b1-4)GlcNAc(b1-2)Man(a1-3)[GalNAc(b1-4)GlcNAc(b1-2)Man(a1-6)]Man(b1-4)GlcNAc(b1-4)GlcNAc
# Outline: as §1
# [6] = molecular target: GalNAc(b1-4)GlcNAc(b1-3)GalNAc(b1-4)GlcNAc
# Outline: as §1
# GalNAc(b1-4)GlcNAc6S = molecular target: GalNAc(b1-4)GlcNAc6S
# Outline: as §1
# GalNAc(b1-6)GalNAc = molecular target: GalNAc(b1-6)GalNAc
# Outline: as §1
# GalNAc3S(b1-4)GlcNAc = molecular target: GalNAc3S(b1-4)GlcNAc
# Outline: as §1
# GalNAc3S(b1-4)GlcNAc3S = molecular target: GalNAc3S(b1-4)GlcNAc3S
# Outline: as §1
# [7] = molecular target: GalNAc3S(b1-4)[Fuc(a1-3)]GlcNAc
# Outline: as §1
# GalNAc4S6S(b1-4)GlcNAc = molecular target: GalNAc4S6S(b1-4)GlcNAc
# Outline: as §1
# GalNAc6S(b1-4)GlcNAc = molecular target: GalNAc6S(b1-4)GlcNAc
# Outline: as §1
# Glc(a1-4)Glc = molecular target: Glc(a1-4)Glc
# Outline: as §1
# [8] = molecular target: Glc(a1-4)Glc(a1-4)Glc(a1-4)Glc
# Outline: as §1
# Glc(a1-6)Glc(a1-6)Glc = molecular target: Glc(a1-6)Glc(a1-6)Glc
# Outline: as §1
# [9] = molecular target: Glc(a1-6)Glc(a1-6)Glc(a1-6)Glc
# Outline: as §1
# Glc(b1-4)Glc = molecular target: Glc(b1-4)Glc
# Outline: as §1
# Glc(b1-6)Glc = molecular target: Glc(b1-6)Glc
# Outline: as §1
# GlcA(b1-3)Gal = molecular target: GlcA(b1-3)Gal
# Outline: as §1
# GlcA(b1-3)GlcNAc = molecular target: GlcA(b1-3)GlcNAc
# Outline: as §1
# GlcA(b1-6)Gal = molecular target: GlcA(b1-6)Gal
# Outline: as §1
# [10] = molecular target: GlcA3S(b1-3)Gal(b1-4)GlcNAc(b1-2)Man
# Outline: as §1
# [11] = molecular target: GlcA3S(b1-3)Gal(b1-4)GlcNAc(b1-3)Gal(b1-4)Glc
# Outline: as §1
# [12] = molecular target: GlcNAc(a1-3)Gal(b1-4)GlcNAc
# Outline: as §1
# [13] = molecular target: GlcNAc(a1-4)Gal(b1-3)GlcNAc
# Outline: as §1
# [14] = molecular target: GlcNAc(a1-4)Gal(b1-4)GalNAc
# Outline: as §1
# [15] = molecular target: GlcNAc(a1-4)Gal(b1-4)GlcNAc
# Outline: as §1
# [16] = molecular target: GlcNAc(a1-4)Gal(b1-4)GlcNAc(b1-3)Gal(b1-4)Glc
# Outline: as §1
# [17] = molecular target: GlcNAc(a1-4)Gal(b1-4)GlcNAc(b1-3)Gal(b1-4)GlcNAc
# Outline: as §1
# [18] = molecular target: GlcNAc(a1-4)Gal(b1-4)GlcNAc(b1-3)Gal(b1-4)GlcNAc(b1-3)Gal(b1-4)GlcNAc
# Outline: as §1
# [19] = molecular target: GlcNAc(a1-4)Gal(b1-4)GlcNAc(b1-3)Gal(b1-4)[Fuc(a1-3)]GlcNAc(b1-3)Gal(b1-4)[Fuc(a1-3)]GlcNAc
# Outline: as §1
# [20] = molecular target: GlcNAc(a1-6)Gal(b1-4)GlcNAc
# Outline: as §1
binder,measurement,setting,value
B1,glycan array binding signal (z-score),GalNAc(b1-3)Gal,-0.84
same,glycan array binding signal (z-score),[1],1.04
same,glycan array binding signal (z-score),[2],-0.14
same,glycan array binding signal (z-score),[3],0.239
same,glycan array binding signal (z-score),GalNAc(b1-3)GalNAc,-0.502
same,glycan array binding signal (z-score),GalNAc(b1-3)GlcNAc,-0.454
same,glycan array binding signal (z-score),GalNAc(b1-4)Gal(b1-4)Glc,1.21
same,glycan array binding signal (z-score),GalNAc(b1-4)GlcNAc,3.09
same,glycan array binding signal (z-score),[4],0.2
same,glycan array binding signal (z-score),[5],1.88
same,glycan array binding signal (z-score),[6],-0.241
same,glycan array binding signal (z-score),GalNAc(b1-4)GlcNAc6S,0.143
same,glycan array binding signal (z-score),GalNAc(b1-6)GalNAc,-1.45
same,glycan array binding signal (z-score),GalNAc3S(b1-4)GlcNAc,-0.67
same,glycan array binding signal (z-score),GalNAc3S(b1-4)GlcNAc3S,-0.279
same,glycan array binding signal (z-score),[7],-0.654
same,glycan array binding signal (z-score),GalNAc4S6S(b1-4)GlcNAc,-0.12
same,glycan array binding signal (z-score),GalNAc6S(b1-4)GlcNAc,1.05
same,glycan array binding signal (z-score),Glc(a1-4)Glc,-0.077
same,glycan array binding signal (z-score),[8],-0.527
same,glycan array binding signal (z-score),Glc(a1-6)Glc(a1-6)Glc,-0.453
same,glycan array binding signal (z-score),[9],0.276
same,glycan array binding signal (z-score),Glc(b1-4)Glc,-1.16
same,glycan array binding signal (z-score),Glc(b1-6)Glc,0.363
same,glycan array binding signal (z-score),GlcA(b1-3)Gal,-0.436
same,glycan array binding signal (z-score),GlcA(b1-3)GlcNAc,0.504
same,glycan array binding signal (z-score),GlcA(b1-6)Gal,-0.131
same,glycan array binding signal (z-score),[10],0.457
same,glycan array binding signal (z-score),[11],0.23
same,glycan array binding signal (z-score),[12],-0.776
same,glycan array binding signal (z-score),[13],-0.619
same,glycan array binding signal (z-score),[14],-0.22
same,glycan array binding signal (z-score),[15],-0.604
same,glycan array binding signal (z-score),[16],0.18
same,glycan array binding signal (z-score),[17],0.346
same,glycan array binding signal (z-score),[18],-0.295
same,glycan array binding signal (z-score),[19],3.02
same,glycan array binding signal (z-score),[20],-0.11

# A second format for part of the listing above.
binder	measurement	setting	value
B1	glycan array binding signal (z-score)	[8]	-0.527
same	glycan array binding signal (z-score)	GlcA(b1-3)Gal	-0.436
